Test results: paper PMC11050134, “A Complex-Type N-Glycan-Specific Lectin Isolated from Green Alga Halimeda borneensis Exhibits Potent Anti-Influenza Virus Activity” (International Journal of Molecular Sciences, 2024)

Tested on: T1, HBL40
T1 construct: gene HBL40-1; native, purified from alga; about 40 kDa dimer of 20 kDa subunits (non-reducing 40, reducing 20 kDa)
Test: centrifugal ultrafiltration-HPLC, fluorescence detection
Assay type: binding, Halimeda borneensis
Settings: 500 nM lectin (90 µL) + 300 nM PA-oligosaccharide (10 µL), 50 mM Tris-HCl pH 7.0, room temperature, 60 min; labelled compound

Row | Substance | binding activity (%)
1 | asialo-triantennae [compound 5] | 68
2 | asialo-biantennae with core fucose [compound 3] | 83
